The list shows only some results of the screen, not a fair sample: it gathers some chemical classes. Other doses and runs of a compound may be missing. T/C gives the treated animals as a percentage of the vehicle group. Schedules are NCI's codes, taken here to give the interval after Q, in days (D) or hours (H), and the number of doses after X. Some T/C values are marked as having no survivor count here; that says nothing about deaths at the dose.

This note sets out measurements from PubChem BioAssay AID278 (DTP/NCI, 2004).

The assay deals with nude mice, A549 intrarenal xenograft, tumor weight change. The assay is described as follows: NCI In Vivo Anticancer Drug Screen. Data for tumor model A549 Human Adenocarcinoma of Lung with characteristics of Type II Alveolar Epithelial cells (intrarenal inoculation) in NU/NU BALB/C (nude) mice. To be noted: T/C endpoint: mean tumor weight change, schedule: Q04DX003 (ip), evaluated on day 12, higher T/C = larger tumour. The protocol:
The antitumor activity of compounds was measured in mice bearing transplantable tumors. Survival or tumor size were measured and the results are expressed as the measurement made in the treated group (T) divided by the measurement made in the vehicle treated control group (C). The tumor model used in this assay is A549 Human Adenocarcinoma of Lung with characteristics of Type II Alveolar Epithelial cells (intrarenal inoculation) in NU/NU BALB/C (nude) mice

Take `CC(O)C1/C=C/C=C/C(=O)OC2CC3OC4C5OC5(C)C(O)CC4(COC(=O)C(O)C(C)CCO1)C2(C)C31CO1` (centres undefined): the T/C is 80 % of control [survivor count not shown] (dose: 12.5 mg/kg/injection, vehicle: saline + alcohol) and 57 % of control [survivor count not shown] (dose: 50.0 mg/kg/injection, vehicle: saline + alcohol).

Consider `CC1=C[C@H]2O[C@@H]3C[C@H]4OC(=O)/C=C\C=C\[C@H]([C@@H](C)O)OC[C@H](O)[C@@]5(C)O[C@@H]5C(=O)OC[C@@]2(C[C@H]1O)[C@]4(C)C31CO1` (some centres undefined), for which the T/C is 92 % of control [survivor count not shown] (dose: 1.25 mg/kg/injection, vehicle: Klucel (hydroxypropylcellulose) (HPC)) and 85 % of control [survivor count not shown] (dose: 2.5 mg/kg/injection, vehicle: Klucel (hydroxypropylcellulose) (HPC)).
